The other results are listed elsewhere or left out.

Amino acid sequences for entries named in this document (tags omitted). A change or cut given only in a name is not applied to a line headed by its entry.
UniProt O43396: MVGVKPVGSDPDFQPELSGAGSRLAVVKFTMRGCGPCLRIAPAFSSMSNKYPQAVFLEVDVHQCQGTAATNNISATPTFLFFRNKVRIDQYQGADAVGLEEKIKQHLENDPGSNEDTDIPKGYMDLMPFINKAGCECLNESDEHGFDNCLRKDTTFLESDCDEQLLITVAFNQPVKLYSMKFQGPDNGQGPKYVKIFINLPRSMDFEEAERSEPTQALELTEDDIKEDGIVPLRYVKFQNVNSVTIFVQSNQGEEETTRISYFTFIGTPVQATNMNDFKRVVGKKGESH
UniProt Q9NYU2: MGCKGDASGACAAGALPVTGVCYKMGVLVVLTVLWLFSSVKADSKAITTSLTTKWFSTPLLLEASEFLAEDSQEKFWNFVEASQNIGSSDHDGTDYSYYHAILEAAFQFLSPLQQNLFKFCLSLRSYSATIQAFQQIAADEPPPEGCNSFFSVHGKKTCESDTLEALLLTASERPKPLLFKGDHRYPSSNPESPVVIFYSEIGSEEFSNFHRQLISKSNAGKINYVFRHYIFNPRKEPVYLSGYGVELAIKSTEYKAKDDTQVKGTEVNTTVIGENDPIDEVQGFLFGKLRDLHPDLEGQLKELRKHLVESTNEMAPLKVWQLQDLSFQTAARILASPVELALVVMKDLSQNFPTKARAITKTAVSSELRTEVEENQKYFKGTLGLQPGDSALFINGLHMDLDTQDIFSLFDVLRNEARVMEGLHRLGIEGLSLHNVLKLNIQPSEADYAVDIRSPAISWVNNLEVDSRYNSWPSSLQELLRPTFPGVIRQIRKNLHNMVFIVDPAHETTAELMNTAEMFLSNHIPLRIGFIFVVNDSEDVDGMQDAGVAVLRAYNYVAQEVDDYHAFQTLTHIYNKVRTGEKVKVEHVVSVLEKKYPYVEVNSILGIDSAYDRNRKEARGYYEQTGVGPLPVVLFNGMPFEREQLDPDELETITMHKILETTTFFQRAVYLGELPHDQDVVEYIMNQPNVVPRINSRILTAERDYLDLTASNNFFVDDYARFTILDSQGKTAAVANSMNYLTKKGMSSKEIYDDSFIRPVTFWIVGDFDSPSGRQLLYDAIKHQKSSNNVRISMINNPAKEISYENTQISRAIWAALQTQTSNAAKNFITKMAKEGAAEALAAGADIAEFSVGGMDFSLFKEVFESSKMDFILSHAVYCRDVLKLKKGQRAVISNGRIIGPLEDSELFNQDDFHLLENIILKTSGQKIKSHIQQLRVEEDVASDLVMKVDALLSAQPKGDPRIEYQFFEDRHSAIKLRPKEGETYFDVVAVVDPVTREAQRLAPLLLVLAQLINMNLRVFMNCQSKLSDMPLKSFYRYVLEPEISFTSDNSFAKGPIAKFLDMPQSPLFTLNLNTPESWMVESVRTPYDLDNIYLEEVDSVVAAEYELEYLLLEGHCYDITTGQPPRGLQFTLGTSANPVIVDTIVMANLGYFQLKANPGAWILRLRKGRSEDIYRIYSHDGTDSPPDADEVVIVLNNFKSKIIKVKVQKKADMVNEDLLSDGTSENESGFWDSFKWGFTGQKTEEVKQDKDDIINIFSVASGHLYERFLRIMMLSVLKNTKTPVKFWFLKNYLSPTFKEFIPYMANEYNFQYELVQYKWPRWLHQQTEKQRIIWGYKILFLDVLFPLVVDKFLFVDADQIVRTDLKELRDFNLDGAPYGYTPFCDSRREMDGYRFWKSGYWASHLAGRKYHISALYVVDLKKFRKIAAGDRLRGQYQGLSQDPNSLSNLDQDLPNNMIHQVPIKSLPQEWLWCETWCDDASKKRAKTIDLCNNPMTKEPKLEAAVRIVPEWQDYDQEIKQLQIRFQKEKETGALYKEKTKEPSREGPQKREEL
UniProt Q9BQ50: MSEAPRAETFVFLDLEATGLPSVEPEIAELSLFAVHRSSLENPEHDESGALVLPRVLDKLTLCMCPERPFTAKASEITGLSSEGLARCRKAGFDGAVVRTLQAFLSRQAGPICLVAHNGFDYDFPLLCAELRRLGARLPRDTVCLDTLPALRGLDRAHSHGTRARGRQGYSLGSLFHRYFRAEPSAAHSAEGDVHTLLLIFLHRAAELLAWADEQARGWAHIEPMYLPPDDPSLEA
UniProt O60701: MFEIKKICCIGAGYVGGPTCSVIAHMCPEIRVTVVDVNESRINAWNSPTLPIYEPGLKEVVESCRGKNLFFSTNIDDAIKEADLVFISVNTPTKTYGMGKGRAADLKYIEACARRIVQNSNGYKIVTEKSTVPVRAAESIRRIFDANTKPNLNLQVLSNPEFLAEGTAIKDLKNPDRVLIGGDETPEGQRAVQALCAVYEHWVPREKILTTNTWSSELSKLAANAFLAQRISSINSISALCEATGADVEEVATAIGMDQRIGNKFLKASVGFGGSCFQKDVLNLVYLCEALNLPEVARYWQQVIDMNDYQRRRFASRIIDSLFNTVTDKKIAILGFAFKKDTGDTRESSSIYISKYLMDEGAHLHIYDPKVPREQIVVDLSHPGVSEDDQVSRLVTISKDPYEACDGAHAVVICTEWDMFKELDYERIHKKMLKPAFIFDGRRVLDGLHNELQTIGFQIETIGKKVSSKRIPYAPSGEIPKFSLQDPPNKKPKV
UniProt O60637: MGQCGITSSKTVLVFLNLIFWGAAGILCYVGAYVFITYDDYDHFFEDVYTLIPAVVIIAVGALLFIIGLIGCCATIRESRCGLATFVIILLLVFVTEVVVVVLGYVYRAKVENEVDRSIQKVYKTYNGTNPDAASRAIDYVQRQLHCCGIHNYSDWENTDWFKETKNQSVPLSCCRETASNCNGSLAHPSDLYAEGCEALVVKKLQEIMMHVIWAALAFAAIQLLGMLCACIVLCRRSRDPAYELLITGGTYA
UniProt Q9Y3Q8: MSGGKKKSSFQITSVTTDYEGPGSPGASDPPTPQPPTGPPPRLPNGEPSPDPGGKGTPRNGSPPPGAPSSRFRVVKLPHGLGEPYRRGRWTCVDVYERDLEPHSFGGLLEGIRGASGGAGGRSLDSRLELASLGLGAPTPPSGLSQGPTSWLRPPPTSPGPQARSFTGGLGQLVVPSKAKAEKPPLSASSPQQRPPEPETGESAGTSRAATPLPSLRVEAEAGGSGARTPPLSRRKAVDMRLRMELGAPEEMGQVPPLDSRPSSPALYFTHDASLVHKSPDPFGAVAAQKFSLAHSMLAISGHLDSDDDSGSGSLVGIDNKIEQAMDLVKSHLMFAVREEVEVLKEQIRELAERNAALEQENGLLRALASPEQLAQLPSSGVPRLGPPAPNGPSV
UniProt Q92995: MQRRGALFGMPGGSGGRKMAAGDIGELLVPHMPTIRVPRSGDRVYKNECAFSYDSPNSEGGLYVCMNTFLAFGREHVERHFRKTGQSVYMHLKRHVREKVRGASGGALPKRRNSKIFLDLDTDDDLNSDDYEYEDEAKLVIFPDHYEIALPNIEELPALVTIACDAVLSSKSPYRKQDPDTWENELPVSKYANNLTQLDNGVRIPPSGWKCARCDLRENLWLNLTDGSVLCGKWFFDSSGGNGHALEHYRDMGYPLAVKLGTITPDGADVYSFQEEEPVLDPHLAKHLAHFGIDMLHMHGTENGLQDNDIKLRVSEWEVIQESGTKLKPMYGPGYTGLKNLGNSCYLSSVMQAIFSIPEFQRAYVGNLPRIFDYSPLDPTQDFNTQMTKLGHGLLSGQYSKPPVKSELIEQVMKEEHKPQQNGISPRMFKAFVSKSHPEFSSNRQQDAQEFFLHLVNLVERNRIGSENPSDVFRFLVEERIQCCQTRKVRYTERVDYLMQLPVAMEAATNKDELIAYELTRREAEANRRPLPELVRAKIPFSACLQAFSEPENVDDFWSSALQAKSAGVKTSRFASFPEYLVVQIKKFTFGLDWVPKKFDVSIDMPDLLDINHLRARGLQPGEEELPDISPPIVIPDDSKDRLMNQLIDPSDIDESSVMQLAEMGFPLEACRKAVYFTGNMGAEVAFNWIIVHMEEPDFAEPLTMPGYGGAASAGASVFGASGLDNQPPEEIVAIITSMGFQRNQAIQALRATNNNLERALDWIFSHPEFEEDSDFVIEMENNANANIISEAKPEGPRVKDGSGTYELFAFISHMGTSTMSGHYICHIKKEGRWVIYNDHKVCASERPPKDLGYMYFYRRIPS
UniProt P49459, whole entry: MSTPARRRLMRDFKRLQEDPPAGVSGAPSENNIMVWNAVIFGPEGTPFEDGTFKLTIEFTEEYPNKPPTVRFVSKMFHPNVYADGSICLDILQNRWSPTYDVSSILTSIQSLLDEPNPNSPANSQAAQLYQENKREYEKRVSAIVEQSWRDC
UniProt Q12899: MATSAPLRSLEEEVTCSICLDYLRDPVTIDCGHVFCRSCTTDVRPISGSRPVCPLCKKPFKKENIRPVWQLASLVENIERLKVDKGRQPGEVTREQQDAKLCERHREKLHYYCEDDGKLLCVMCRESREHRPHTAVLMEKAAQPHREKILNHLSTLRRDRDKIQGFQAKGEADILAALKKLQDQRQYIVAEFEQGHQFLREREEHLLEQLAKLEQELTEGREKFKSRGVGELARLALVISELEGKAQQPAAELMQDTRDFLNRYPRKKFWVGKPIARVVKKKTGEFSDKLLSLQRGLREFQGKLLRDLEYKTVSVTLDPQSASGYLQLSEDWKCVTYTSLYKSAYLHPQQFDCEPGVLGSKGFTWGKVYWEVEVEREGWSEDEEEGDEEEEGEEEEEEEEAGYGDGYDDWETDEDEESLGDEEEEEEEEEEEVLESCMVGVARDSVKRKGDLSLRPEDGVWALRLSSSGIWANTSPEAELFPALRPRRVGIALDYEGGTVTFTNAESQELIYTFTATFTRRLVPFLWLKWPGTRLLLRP
UniProt Q8WVT3: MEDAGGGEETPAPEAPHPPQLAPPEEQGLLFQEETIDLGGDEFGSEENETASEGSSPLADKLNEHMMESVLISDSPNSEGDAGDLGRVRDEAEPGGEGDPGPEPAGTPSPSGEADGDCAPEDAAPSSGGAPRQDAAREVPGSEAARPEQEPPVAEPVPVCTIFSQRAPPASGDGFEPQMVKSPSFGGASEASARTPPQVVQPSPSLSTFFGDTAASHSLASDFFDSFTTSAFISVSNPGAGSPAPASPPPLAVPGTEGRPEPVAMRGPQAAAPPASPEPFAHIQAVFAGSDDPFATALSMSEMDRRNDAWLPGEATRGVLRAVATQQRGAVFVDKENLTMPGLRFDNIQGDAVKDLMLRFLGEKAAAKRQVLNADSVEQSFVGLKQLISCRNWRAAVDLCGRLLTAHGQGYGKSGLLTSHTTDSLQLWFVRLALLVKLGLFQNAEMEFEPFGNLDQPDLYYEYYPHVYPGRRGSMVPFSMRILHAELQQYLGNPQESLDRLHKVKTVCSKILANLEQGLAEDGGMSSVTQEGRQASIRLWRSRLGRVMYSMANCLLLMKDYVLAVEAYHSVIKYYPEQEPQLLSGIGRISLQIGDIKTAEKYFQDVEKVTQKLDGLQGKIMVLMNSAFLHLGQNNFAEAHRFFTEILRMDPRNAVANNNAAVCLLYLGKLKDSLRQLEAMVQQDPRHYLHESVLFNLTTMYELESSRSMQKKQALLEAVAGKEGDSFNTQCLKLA
UniProt Q15654: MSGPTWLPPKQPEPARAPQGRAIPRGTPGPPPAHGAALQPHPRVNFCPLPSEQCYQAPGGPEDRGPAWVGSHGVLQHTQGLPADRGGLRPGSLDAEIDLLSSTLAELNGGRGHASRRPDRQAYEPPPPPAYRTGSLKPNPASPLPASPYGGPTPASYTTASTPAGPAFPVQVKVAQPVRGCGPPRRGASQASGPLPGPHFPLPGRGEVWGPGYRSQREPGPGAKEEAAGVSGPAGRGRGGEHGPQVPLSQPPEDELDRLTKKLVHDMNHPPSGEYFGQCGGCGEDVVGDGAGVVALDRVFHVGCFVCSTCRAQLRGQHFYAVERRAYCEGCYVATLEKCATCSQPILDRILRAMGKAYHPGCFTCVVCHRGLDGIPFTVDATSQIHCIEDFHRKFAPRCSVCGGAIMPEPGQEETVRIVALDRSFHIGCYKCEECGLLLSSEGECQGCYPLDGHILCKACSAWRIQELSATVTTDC
UniProt Q9Y3C8: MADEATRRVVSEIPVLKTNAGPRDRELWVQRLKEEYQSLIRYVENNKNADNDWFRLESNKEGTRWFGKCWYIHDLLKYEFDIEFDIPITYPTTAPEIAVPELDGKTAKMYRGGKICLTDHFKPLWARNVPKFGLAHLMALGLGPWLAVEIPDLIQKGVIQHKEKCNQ
UniProt Q9NVA1: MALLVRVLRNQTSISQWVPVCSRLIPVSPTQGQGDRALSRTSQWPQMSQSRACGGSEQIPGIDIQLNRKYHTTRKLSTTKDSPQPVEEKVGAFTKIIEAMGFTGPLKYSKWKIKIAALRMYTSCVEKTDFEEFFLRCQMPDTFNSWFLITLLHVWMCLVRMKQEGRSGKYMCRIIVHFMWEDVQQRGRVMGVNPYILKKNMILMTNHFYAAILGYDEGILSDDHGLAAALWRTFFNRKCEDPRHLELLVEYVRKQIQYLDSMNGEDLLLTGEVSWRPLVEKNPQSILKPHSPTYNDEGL

Compound in this test: COc1ccc(Cn2ccc3ccc(C(=O)NO)cc32)cc1
The test can be described thus: dose-dependent thermal stabilisation call (2D-TPP, DLPTP, 10% FDR) (binary (1 = stabilised)); higher = stabilised by the compound. Particulars: system: HL-60 intact cells; concentration range 0.04-10 µM.
Turning to TUBB2C (UniProt P68371), the “dose-dependent thermal stabilisation call” value is inactive: 0.

Consider TXNL1 (UniProt O43396), for which the “dose-dependent thermal stabilisation call” value was inactive: 0.

As to UGCGL1 (UniProt Q9NYU2), the “dose-dependent thermal stabilisation call” value was inactive: 0.

USP38 (UniProt Q8NB14): the “dose-dependent thermal stabilisation call” value was inactive: 0.

Turning to TREX2 (UniProt Q9BQ50), the “dose-dependent thermal stabilisation call” value was inactive: 0.

As for UGDH (UniProt O60701), the “dose-dependent thermal stabilisation call” value is inactive: 0.

As for TSPAN3 (UniProt O60637), the “dose-dependent thermal stabilisation call” value was inactive: 0.

On to TSPO, for which the “dose-dependent thermal stabilisation call” value was inactive: 0.

Take TSC22D4 (UniProt Q9Y3Q8): the “dose-dependent thermal stabilisation call” value was inactive: 0.

On to TSC22D1 (UniProt Q15714), for which the “dose-dependent thermal stabilisation call” value is inactive: 0.

Regarding USP24 (UniProt Q9UPU5), the “dose-dependent thermal stabilisation call” value was inactive: 0.

Regarding USP13 (UniProt Q92995), the “dose-dependent thermal stabilisation call” value was inactive: 0.

Turning to TUBGCP3 (UniProt Q96CW5), the “dose-dependent thermal stabilisation call” value was inactive: 0.

On to UBE2A (UniProt P49459), for which the “dose-dependent thermal stabilisation call” value is inactive: 0.

Regarding USP19 (UniProt O94966), the “dose-dependent thermal stabilisation call” value was inactive: 0.

Take TRIM26 (UniProt Q12899): the “dose-dependent thermal stabilisation call” value was inactive: 0.

As to TTC15 (UniProt Q8WVT3), the “dose-dependent thermal stabilisation call” value was inactive: 0.

Take TRIP6 (UniProt Q15654): the “dose-dependent thermal stabilisation call” value was inactive: 0.

For TWF1 (UniProt Q12792), the “dose-dependent thermal stabilisation call” value was inactive: 0.

For the target TRIP12 (UniProt Q14669), the “dose-dependent thermal stabilisation call” value was inactive: 0.

Consider UBA6, for which the “dose-dependent thermal stabilisation call” value is inactive: 0.

With UBE2K (UniProt P61086), the “dose-dependent thermal stabilisation call” value was inactive: 0.

For the target TSR2 (UniProt Q969E8), the “dose-dependent thermal stabilisation call” value was inactive: 0.

Regarding TPRKB (UniProt Q9Y3C4), the “dose-dependent thermal stabilisation call” value is inactive: 0.

Take UHRF1BP1 (UniProt Q6BDS2): the “dose-dependent thermal stabilisation call” value is inactive: 0.

Take USP32 (UniProt Q8NFA0): the “dose-dependent thermal stabilisation call” value was inactive: 0.

On to UFC1 (UniProt Q9Y3C8), for which the “dose-dependent thermal stabilisation call” value is inactive: 0.

As for UQCC (UniProt Q9NVA1), the “dose-dependent thermal stabilisation call” value is inactive: 0.

The values are drawn from the supplement of paper PMC7666118.
